# Experimental data: patent US9924719B2, “Pyridazine compound” (Sumitomo Chemical Company, Limited, priority 2014, dated 2018)
# Some results were stated once for a whole list of compounds, not compound by compound.
# Tests used:
# Assay type in all cases: in vivo
# [1] = system: Western corn rootworm (Diabrotica virgifera virgifera); assay: Test Example 12: corn seedling immersion, Western corn rootworm larvae, 200 ppm; conditions: corn seedling immersed 30 seconds, second instar larvae, 25° C., 5 days
# [2] = system: cotton aphid (Aphis gossypii); assay: Test Example 3: irrigation at plant foot of cucumber seedling, cotton aphid, 200 ppm; conditions: 5 mL irrigation at plant foot of cucumber, aphids released later, 6 days after release
# [3] = system: brown planthopper (Nilaparvata lugens); assay: Test Example 6: irrigation at plant foot of rice seedling, brown planthopper, 200 ppm; conditions: 5 mL irrigation at plant foot of rice, larvae released after 7 days, counted after additional 6 days
# [4] = system: brown planthopper (Nilaparvata lugens); assay: Test Example 4: spray on rice seedling, brown planthopper, 500 ppm; conditions: 10 mL spray on rice seedling, 3rd to 4th instar larvae, after 6 days, 25° C.
SMILES,morality of insects [1],controlling value [2],controlling value [3],controlling value [4]
CCS(=O)(=O)c1cccnc1-c1cc(C(F)(F)F)c(OCC(F)(F)C(F)(F)F)nn1 [Present compound 34],≥ 80%,–,–,–
CC[S+]([O-])c1cccnc1-c1cc(C)c(OCC(F)(F)C(F)(F)F)nn1 (centres unmarked) [Present compound 38],≥ 80%,≥ 90%,≥ 90%,≥ 90%
